# Values of other authors as cited in paper PMC12805357, “Cooperative ligand binding in a bacterial heme-based oxygen sensor” (The Journal of Biological Chemistry, 2025).
# B1: hhMb: myoglobin comparison protein listed as hhMb in Table S2, literature values (protein, UniProt P68082 2-154, looked up)
# Myoglobin: GLSDGEWQQVLNVWGKVEADIAGHGQEVLIRLFTGHPETLEKFDKFKHLKTEAEMKASEDLKKHGTVVLTALGGILKKKGHHEAELKPLAQSHATKHKIPIKYLEFISDAIIHVLHSKHPGDFGADAQGAMTKALELFRNDIAAKYKELGFQG
# Design: method as in earlier work
# Settings: myoglobins; ref 7 of the supplement (Faulkner et al., 1995)
molecule,measurement,value
B1,n max,0.95
